# Data as given in PubChem BioAssay AID504808 (Drosophila RNAi Screening Center, 2011).
# Assay: 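Genes whose loss lifts activity of an E2F-responsive reporter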 (primary screen)
# Cells: Drosophila S2 cells
# Reagent: long dsRNA against Drosophila genes
# Measurement: 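Firefly luciferase driven by E2F sites, normalised to Renilla luciferase on the same minimal promoter, measured by plate reader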
# Scale: E2F firefly: higher = more E2F reporter activity; Renilla normaliser: higher = more normaliser reporter signal
# Call rule: 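Called active if the normalised E2F reporter went up by over 50%; the cutoff is arbitrary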
# In all, the deposit lists about 21,000 reagents; below is an unselected part of those with a known target gene and a result. Over the whole deposit, 18 (0.084%) were called active. 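Raw counts without plate normalisation, one of two replicates; the ratio scores behind the calls were not deposited.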 Reagents against one gene are numbered here. A plus sign joins genes that one reagent is predicted to hit. Not given: the amount of reagent, the time to read-out.
predicted target,dsRNA no.,"E2F firefly, rep 1","Renilla normaliser, rep 1",call
CAP,1,1.28e5,4276,inactive
CAP,2,3042,208,inactive
CAP,3,1.37e5,5551,inactive
CAP,4,1.60e5,4852,inactive
CAP,5,1.56e5,4568,inactive
nAChRbeta2 (nicotinic Acetylcholine Receptor beta2),1,65013,4318,inactive
Gclc (Glutamate-cysteine ligase catalytic subunit),1,1.12e5,5041,inactive
lilli (lilliputian),1,77102,4484,inactive
CG31253 + CG31131,1,99246,2918,inactive
dUTPase (Deoxyuridine triphosphatase),1,81160,3025,inactive
veli,1,91416,4909,inactive
CG42346,1,1.24e5,7040,inactive
CG42346,2,1.26e5,7093,inactive
CG42808 + CG42807,1,2981,189,inactive
CG42808 + CG42807,2,1.04e5,4106,inactive
CG8646,1,94874,3969,inactive
Hsp60B (Heat shock protein 60B),1,81488,3837,inactive
nwk (nervous wreck),1,1.05e5,4415,inactive
CG4553,1,1.06e5,5497,inactive
Rlip (Ral interacting protein),1,1.31e5,6395,inactive
Dic3,1,1.35e5,4456,inactive
CG3285,1,90291,3804,inactive
Bruce (BIR repeat containing ubiquitin-conjugating enzyme),1,1.60e5,5577,inactive
CG34223,1,1.30e5,4981,inactive
CG18764,1,1.40e5,6499,inactive
CG11791,1,72987,3124,inactive
CG5773,1,1.49e5,4611,inactive
Rae1,1,70473,3292,inactive
trbl (tribbles),1,1.42e5,5909,inactive
sisA,1,1.18e5,5608,inactive
Arp2 (Actin-related protein 2),1,2.52e5,7975,inactive
CG30065,1,1.31e5,4476,inactive
Lcp65Ae,1,92785,3837,inactive
Snx16 (Sorting nexin 16),1,1.52e5,5439,inactive

Part of the list above, reformatted:
predicted target | dsRNA no. | E2F firefly, rep 1 | Renilla normaliser, rep 1 | call
Bruce (BIR repeat containing ubiquitin-conjugating enzyme) | 1 | 1.60e5 | 5577 | inactive
CG34223 | 1 | 1.30e5 | 4981 | inactive
CG18764 | 1 | 1.40e5 | 6499 | inactive
CG11791 | 1 | 72987 | 3124 | inactive
CG5773 | 1 | 1.49e5 | 4611 | inactive
